Data source: PubChem BioAssay AID652259 (Drosophila RNAi Screening Center, 2013)
The deposit covers about 22,000 reagents; shown is a random part of those with a known target gene and a result. Of all reagents, 233 (1.1%) were called active. 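Light values are raw, unnormalised plate reads; the ratio scores behind the reporter calls were not deposited.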 The numbers tell different reagents against one gene apart. Names joined by + are all predicted targets of the reagent. The record does not give: the amount of reagent, the time to read-out, the dose of the treatment.

Screen: 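Genome-wide hunt for genes that control Wingless pathway activity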 (primary screen)
Cells: Drosophila clone 8 imaginal disc epithelial cells
Reagent: long dsRNA against Drosophila genes
Conditions: pathway stimulated by co-transfected Wingless expression plasmid
Measured: 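Firefly luciferase from a tcf-site Wingless reporter, measured alongside co-transfected Renilla luciferase that tracks transfection; pathway stimulated by a Wingless plasmid; the firefly-to-Renilla ratio is not deposited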
Scale: firefly reporter light: higher = more Wg reporter light, before normalisation; Renilla control light: higher = more transfected or surviving cells
Rule for the call: 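a knock-down is a candidate when at least two out of four statistical tests show it departing from its plate mean; one test alone signals a weak candidate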
Calls: active = candidate regulator (raises or lowers reporter); inactive = not a candidate

target gene	reagent no.	reporter change call, replicate 1	firefly reporter light, replicate 1	firefly reporter light, replicate 2	Renilla control light, replicate 1	Renilla control light, replicate 2	call
mtrm (matrimony)	1		3051		820		inactive
CG13931	1		4429		2464		inactive
Cdk12 (Cyclin-dependent kinase 12)	1		11515		2742		inactive
CheA87a (Chemosensory protein A 87a)	1		11696		3484		inactive
CG2291	1		3490	8345	658	2963	inactive
CSN4 (COP9 signalosome subunit 4)	1		2866	7106	695	2755	inactive
B4	1		5508		2874		inactive
B4	2		5552	7382	1507	2179	inactive
CG6144	1		2801		340		inactive
CG2608	1		6770		2636		inactive
CG14191	1		27048		1366		inactive
Arpc4 (Actin-related protein 2/3 complex, subunit 4)	1		2800	7073	521	1744	inactive
Pex2 (Peroxin 2)	1		4396		1961		inactive
RNaseX25 (Ribonuclease X25)	1		3716		2041		inactive
IM33 (Immune induced molecule 33)	1		3927	8416	977	2707	inactive
Gga	1		1522	4208	660	1655	inactive
bonsai	1		2651	6549	706	2588	inactive
CG9344	1		4947	11690	752	3085	inactive
Cpr64Ad (Cuticular protein 64Ad)	1	Wg reporter activity raised	9901		4165		inactive
Osi6 (Osiris 6)	1		13909		4247		inactive
Cp7Fa (Chorion protein a at 7F)	1		18781		7675		inactive
Cp7Fa (Chorion protein a at 7F)	2		18448		7596		inactive
CG32564	1		19776		9336		inactive
Crk (Crk oncogene)	1		3556	8342	1450	4117	inactive
beta4GalNAcTA (beta1,4-N-acetylgalactosaminyltransferase A)	1		4129		1208		inactive
Cpr11B (Cuticular protein 11B)	1		2992	7664	827	1831	inactive
CG9512	1		2091	7570	1027	3024	inactive
Rab40	1		17782		11943		inactive
Veneno	1		12720		3396		inactive
CG12236	1	Wg reporter activity raised	4544	10984	352	695	active
CG12236	2		13912		7435		inactive
CG5973	1		13559		6006		inactive
AstC-R2 (Allatostatin C receptor 2)	1		6652		3645		inactive
mRpL13 (mitochondrial ribosomal protein L13)	1		3138	7601	563	2560	inactive
r + CG13012	1		20272		8293		inactive
Vamp7 (Vesicle-associated membrane protein 7)	1		3456	11913	1110	4193	inactive
PAN3 (Poly(A) specific ribonuclease subunit PAN3)	1		3841		1248		inactive
CG7694	1		16852		3648		inactive
CG3566	1		23169		11754		inactive
rin (rasputin)	1	Wg reporter activity raised	24332		1433		active
CG31999	1		19201		12004		inactive
CG31999	2		18373		12673		inactive
CG13157	1		6374		2643		inactive
Nepl15 (Neprilysin-like 15)	1		1792	5307	1207	2417	inactive
CG15922	1		21628		5399		inactive
Pfk (Phosphofructokinase)	1		6843		2741		inactive
CG13386	1		1866	4486	640	2416	inactive
CG7715	1		16356		3668		inactive
CG32195	1		2746		1468		inactive

7 entries from above in another layout.
{"target gene":"CG32564","reagent no.":1,"firefly reporter light, replicate 1":19776,"Renilla control light, replicate 1":9336,"call":"inactive"}
{"target gene":"Crk (Crk oncogene)","reagent no.":1,"firefly reporter light, replicate 1":3556,"firefly reporter light, replicate 2":8342,"Renilla control light, replicate 1":1450,"Renilla control light, replicate 2":4117,"call":"inactive"}
{"target gene":"beta4GalNAcTA (beta1,4-N-acetylgalactosaminyltransferase A)","reagent no.":1,"firefly reporter light, replicate 1":4129,"Renilla control light, replicate 1":1208,"call":"inactive"}
{"target gene":"Cpr11B (Cuticular protein 11B)","reagent no.":1,"firefly reporter light, replicate 1":2992,"firefly reporter light, replicate 2":7664,"Renilla control light, replicate 1":827,"Renilla control light, replicate 2":1831,"call":"inactive"}
{"target gene":"CG9512","reagent no.":1,"firefly reporter light, replicate 1":2091,"firefly reporter light, replicate 2":7570,"Renilla control light, replicate 1":1027,"Renilla control light, replicate 2":3024,"call":"inactive"}
{"target gene":"Rab40","reagent no.":1,"firefly reporter light, replicate 1":17782,"Renilla control light, replicate 1":11943,"call":"inactive"}
{"target gene":"Veneno","reagent no.":1,"firefly reporter light, replicate 1":12720,"Renilla control light, replicate 1":3396,"call":"inactive"}
